From the supplement of paper PMC12823440, “Inhibitors supercharge kinase turnover through native proteolytic circuits” (Nature, 2025)
This is one part of the list. The calls rarely recur for the same compound in another form.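 Kinases, fused to nanoluciferase, were expressed in K562 cells; luminescence was measured every 4 h from 2 to 18 h as percent of control (DMSO = 100%, positive control = 0%). A time point is decreased if signal falls significantly (2 sigma). Hits were called by the authors by a rule that is not shown; the count of time points alone does not decide it.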

Protein sequences, listed by entry. Tags and fused reporters are not part of them. Lines headed by an entry give the natural chain unless they say otherwise; changes in a name come on top.
UniProt Q05397, whole entry, looked up: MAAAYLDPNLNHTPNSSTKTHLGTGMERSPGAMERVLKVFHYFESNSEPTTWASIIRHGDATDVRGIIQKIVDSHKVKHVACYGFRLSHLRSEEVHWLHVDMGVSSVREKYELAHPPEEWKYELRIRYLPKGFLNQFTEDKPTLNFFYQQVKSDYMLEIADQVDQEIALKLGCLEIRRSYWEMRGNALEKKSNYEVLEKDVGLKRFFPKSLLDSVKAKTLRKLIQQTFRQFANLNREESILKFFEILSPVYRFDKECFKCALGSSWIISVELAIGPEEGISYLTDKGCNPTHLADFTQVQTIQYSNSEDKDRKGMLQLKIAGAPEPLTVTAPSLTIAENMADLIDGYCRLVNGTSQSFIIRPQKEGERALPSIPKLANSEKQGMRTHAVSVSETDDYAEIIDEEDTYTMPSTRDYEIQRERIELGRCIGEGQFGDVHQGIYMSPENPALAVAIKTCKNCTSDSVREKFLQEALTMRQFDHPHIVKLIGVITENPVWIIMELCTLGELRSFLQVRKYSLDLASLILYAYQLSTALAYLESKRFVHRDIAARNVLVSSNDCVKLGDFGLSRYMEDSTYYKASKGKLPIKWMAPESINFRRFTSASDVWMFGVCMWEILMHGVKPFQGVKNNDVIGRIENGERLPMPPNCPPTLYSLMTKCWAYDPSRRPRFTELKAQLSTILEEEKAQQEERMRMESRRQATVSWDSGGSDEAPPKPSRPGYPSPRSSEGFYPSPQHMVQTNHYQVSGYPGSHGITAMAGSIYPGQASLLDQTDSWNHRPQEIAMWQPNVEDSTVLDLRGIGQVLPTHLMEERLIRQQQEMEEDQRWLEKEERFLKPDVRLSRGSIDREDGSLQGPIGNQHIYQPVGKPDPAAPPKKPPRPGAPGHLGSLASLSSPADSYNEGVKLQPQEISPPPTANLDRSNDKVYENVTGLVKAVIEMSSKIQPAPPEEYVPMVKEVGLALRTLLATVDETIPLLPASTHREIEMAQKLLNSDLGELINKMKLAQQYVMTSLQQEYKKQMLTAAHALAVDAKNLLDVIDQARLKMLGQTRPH
UniProt P53671: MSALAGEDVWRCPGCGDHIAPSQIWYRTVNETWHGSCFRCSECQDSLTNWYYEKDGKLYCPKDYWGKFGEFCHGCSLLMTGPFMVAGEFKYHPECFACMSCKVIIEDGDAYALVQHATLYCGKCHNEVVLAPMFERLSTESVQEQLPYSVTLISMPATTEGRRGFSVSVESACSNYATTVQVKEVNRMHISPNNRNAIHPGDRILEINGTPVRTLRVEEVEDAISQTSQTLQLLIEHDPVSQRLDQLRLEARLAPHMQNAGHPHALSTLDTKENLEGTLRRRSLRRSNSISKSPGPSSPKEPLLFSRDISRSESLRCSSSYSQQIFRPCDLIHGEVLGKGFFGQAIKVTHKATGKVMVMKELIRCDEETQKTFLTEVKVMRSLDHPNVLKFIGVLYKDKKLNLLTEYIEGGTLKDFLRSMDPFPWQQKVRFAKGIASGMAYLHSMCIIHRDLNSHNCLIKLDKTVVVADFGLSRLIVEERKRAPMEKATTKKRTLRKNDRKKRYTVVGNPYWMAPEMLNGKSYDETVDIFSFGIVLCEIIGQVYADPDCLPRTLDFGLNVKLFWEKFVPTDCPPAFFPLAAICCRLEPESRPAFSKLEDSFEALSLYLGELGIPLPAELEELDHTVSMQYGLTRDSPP
UniProt Q16288, whole entry, looked up: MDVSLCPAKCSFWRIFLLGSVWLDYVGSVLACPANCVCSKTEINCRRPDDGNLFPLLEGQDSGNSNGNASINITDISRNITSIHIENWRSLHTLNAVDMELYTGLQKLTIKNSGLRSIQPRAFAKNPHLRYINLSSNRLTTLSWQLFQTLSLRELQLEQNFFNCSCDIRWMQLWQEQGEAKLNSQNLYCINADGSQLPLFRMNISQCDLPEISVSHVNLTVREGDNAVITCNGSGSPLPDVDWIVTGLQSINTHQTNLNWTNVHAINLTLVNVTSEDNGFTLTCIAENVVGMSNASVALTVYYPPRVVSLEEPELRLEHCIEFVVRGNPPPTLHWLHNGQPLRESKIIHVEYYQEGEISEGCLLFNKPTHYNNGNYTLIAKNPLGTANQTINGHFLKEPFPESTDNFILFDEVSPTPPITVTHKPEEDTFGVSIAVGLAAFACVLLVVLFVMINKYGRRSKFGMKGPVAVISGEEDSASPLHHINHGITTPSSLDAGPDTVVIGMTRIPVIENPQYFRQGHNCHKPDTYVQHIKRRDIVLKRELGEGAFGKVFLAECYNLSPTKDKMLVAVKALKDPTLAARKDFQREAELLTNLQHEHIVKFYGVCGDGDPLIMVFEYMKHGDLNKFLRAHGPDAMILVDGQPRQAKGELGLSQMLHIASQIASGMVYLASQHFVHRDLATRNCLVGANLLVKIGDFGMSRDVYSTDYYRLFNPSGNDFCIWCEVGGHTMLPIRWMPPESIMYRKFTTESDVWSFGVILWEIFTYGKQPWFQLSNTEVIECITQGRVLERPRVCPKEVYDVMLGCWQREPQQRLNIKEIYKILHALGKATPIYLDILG
UniProt Q01974, whole entry: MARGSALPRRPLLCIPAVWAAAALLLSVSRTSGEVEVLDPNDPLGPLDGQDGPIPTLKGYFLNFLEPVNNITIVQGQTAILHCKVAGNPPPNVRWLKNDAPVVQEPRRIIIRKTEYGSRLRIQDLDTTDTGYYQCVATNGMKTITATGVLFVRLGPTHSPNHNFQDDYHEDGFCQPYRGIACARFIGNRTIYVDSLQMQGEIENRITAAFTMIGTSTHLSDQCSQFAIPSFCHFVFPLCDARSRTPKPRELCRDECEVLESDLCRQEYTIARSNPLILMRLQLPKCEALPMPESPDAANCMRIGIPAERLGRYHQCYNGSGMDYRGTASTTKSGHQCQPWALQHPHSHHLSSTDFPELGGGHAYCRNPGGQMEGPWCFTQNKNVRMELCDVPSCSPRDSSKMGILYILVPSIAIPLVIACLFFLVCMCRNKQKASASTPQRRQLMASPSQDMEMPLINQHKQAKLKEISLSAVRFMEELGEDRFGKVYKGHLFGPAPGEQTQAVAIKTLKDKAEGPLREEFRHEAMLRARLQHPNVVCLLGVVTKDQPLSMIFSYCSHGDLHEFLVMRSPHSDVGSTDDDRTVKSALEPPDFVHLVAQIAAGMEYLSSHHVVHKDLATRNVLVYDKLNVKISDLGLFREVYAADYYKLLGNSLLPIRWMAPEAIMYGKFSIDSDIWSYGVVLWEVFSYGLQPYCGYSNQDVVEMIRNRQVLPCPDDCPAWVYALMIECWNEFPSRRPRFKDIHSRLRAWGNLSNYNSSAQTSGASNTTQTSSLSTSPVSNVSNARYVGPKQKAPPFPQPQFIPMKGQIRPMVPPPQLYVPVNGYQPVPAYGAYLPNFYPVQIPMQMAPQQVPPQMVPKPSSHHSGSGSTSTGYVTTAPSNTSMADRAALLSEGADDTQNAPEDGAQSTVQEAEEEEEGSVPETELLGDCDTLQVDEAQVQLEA
UniProt Q15208: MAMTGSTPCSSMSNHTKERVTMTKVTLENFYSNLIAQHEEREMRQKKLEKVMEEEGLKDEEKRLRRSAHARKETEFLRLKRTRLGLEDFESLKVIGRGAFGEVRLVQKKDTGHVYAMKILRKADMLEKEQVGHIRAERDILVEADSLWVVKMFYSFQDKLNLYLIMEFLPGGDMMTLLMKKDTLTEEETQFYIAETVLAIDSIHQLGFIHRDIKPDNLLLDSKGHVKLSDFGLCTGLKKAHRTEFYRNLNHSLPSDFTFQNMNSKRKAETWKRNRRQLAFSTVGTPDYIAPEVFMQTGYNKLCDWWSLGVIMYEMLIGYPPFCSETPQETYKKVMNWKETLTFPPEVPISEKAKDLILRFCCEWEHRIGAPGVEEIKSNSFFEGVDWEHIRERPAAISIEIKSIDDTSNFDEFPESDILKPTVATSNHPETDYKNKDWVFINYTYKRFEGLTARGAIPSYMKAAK
UniProt Q00534, whole entry: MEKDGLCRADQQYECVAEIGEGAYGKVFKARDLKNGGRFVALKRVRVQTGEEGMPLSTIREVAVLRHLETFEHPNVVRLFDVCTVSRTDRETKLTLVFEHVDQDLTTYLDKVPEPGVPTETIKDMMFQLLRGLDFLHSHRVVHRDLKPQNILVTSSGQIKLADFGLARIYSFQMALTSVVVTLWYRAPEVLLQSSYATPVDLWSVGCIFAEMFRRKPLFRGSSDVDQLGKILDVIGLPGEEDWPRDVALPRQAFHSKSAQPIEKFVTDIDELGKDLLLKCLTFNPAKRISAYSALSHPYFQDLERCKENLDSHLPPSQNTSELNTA
UniProt P09619, whole entry: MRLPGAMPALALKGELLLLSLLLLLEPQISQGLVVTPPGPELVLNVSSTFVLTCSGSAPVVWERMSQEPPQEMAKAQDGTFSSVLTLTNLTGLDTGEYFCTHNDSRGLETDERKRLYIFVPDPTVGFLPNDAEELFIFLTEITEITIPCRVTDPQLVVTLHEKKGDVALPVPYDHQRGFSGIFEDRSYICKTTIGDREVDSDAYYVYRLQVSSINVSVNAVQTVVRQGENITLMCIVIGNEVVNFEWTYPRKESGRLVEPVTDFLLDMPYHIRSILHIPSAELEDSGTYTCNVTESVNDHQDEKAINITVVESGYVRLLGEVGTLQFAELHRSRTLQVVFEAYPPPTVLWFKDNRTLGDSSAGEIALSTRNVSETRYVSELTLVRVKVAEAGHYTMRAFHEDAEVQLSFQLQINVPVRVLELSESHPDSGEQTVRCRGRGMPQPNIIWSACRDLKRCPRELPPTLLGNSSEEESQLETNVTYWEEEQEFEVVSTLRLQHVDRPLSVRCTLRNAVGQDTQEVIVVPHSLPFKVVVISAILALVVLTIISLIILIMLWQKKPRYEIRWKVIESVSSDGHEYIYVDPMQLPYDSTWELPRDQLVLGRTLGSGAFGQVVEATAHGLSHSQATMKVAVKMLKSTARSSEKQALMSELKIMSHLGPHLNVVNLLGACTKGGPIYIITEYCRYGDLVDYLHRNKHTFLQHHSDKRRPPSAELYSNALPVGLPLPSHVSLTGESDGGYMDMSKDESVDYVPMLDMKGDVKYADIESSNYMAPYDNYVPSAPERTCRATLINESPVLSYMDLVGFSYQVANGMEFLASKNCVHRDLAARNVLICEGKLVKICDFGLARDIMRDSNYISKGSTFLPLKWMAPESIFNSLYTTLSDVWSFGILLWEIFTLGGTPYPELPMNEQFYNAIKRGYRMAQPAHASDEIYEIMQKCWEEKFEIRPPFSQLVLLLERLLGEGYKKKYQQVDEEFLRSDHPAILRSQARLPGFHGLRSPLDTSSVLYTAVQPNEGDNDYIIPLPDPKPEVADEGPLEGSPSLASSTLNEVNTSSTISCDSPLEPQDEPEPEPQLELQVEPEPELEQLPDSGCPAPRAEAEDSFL
UniProt P29597: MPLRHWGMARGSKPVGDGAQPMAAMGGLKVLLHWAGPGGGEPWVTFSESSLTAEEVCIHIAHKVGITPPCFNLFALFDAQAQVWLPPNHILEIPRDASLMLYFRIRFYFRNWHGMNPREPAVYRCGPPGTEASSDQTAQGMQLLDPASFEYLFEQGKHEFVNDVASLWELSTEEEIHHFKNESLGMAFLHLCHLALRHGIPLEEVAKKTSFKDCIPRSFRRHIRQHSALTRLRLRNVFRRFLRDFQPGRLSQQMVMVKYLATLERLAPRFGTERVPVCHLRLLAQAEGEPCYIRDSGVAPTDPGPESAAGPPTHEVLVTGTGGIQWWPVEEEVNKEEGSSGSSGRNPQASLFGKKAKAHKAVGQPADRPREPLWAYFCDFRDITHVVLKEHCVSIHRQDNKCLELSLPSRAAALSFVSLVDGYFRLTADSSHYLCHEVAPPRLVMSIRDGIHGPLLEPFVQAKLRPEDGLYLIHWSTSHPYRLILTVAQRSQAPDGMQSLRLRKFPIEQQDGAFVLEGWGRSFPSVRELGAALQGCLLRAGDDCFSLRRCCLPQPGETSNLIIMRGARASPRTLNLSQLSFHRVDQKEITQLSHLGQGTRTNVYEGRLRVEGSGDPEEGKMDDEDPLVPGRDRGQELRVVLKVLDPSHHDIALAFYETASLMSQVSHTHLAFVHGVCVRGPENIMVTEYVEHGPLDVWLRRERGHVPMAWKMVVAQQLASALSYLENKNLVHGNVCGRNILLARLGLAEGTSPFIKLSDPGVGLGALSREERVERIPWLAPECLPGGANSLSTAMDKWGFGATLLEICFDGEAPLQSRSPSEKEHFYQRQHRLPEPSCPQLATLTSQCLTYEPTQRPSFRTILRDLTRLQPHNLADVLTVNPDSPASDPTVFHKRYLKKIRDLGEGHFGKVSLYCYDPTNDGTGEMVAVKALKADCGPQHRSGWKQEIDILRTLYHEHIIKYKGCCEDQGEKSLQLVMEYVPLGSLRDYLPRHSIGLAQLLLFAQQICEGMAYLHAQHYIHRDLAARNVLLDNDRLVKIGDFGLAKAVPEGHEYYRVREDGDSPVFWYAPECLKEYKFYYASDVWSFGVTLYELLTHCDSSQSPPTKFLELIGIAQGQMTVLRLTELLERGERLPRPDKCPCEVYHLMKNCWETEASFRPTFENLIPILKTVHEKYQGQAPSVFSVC

compound: C=CC(=O)Nc1cc2c(Nc3ccc(F)c(Cl)c3)ncnc2cc1C#CC(C)(C)N1CCN(C)CC1; test: number of time points (of 5) at which kinase-Nluc abundance scored as decreased, DMSO-normalised (count); higher = more persistent destabilization; conditions: 2.5 µM; K562; 2-18 h

| Target | number of time points |
| --- | --- |
| PTK2 (UniProt Q05397) | 4 |
| RAF1_S257L (clone: RAF1_mut) (UniProt P04049) | 0 |
| CSNK1A1 (UniProt P48729) | 0 |
| LIMK2 (UniProt P53671) | 5 |
| PIK4CB (UniProt Q9UBF8) | 0 |
| HER2 (UniProt P04626) | 5 |
| PTK2B (UniProt Q14289) | 0 |
| AKT1 (UniProt P31749) | 0 |
| NTRK3 (UniProt Q16288) | 0 |
| MAPK1 (UniProt P28482) | 0 |
| RIPK2 (UniProt O43353) | 0 |
| AURKB (UniProt Q96GD4) | 3 |
| ERN1 (UniProt O75460) | 0 |
| CSNK1D (UniProt P48730) | 0 |
| ROR2 (UniProt Q01974) | 0 |
| FGFR1 (UniProt P11362) | 0 |

| Target | number of time points |
| --- | --- |
| STK38 (UniProt Q15208) | 0 |
| CDK6 (UniProt Q00534) | 0 |
| SYK (UniProt P43405) | 0 |
| PDGFRB (UniProt P09619) | 0 |
| MAP2K1 (UniProt Q02750) | 0 |
| TYK2 (UniProt P29597) | 0 |
| RIOK1 (UniProt Q9BRS2) | 0 |
| SPHK1 (UniProt Q9NYA1) | 0 |
| MAPK4 (UniProt P31152) | 0 |
| CDK10 (UniProt Q15131) | 1 |
| MAP2K2 (UniProt P36507) | 0 |
| LIMK1 (UniProt P53667) | 5 |
| PDPK1 (UniProt O15530) | 0 |
| PAK4 (UniProt O96013) | 0 |
| BMX (UniProt P51813) | 5 |

compound: CC(=O)N[C@H](Cc1ccc(O)cc1)C(=O)N[C@H](CCCN=C(N)N)C(=O)N[C@H](Cc1ccccc1)C(N)=O; test: as above; conditions: 10 µM; K562; 2-18 h

| Target | number of time points |
| --- | --- |
| PTK2 (UniProt Q05397) | 0 |
| RAF1_S257L (clone: RAF1_mut) (UniProt P04049) | 0 |
| CSNK1A1 (UniProt P48729) | 0 |
| LIMK2 (UniProt P53671) | 0 |
| PIK4CB (UniProt Q9UBF8) | 0 |
| HER2 (UniProt P04626) | 0 |
| PTK2B (UniProt Q14289) | 0 |
| AKT1 (UniProt P31749) | 0 |
| NTRK3 (UniProt Q16288) | 0 |
| MAPK1 (UniProt P28482) | 0 |
| RIPK2 (UniProt O43353) | 0 |
| AURKB (UniProt Q96GD4) | 0 |
| ERN1 (UniProt O75460) | 0 |
| CSNK1D (UniProt P48730) | 0 |
| ROR2 (UniProt Q01974) | 0 |
| FGFR1 (UniProt P11362) | 0 |

| Target | number of time points |
| --- | --- |
| STK38 (UniProt Q15208) | 0 |
| CDK6 (UniProt Q00534) | 0 |
| SYK (UniProt P43405) | 0 |
| PDGFRB (UniProt P09619) | 0 |
| MAP2K1 (UniProt Q02750) | 0 |
| TYK2 (UniProt P29597) | 0 |
| RIOK1 (UniProt Q9BRS2) | 0 |
| SPHK1 (UniProt Q9NYA1) | 0 |
| MAPK4 (UniProt P31152) | 0 |
| CDK10 (UniProt Q15131) | 0 |
| MAP2K2 (UniProt P36507) | 0 |
| LIMK1 (UniProt P53667) | 0 |
| PDPK1 (UniProt O15530) | 0 |
| PAK4 (UniProt O96013) | 0 |
| BMX (UniProt P51813) | 0 |
